Data as given in PubChem BioAssay AID1259424 (University of Nebraska Medical Center, 2018).
Assay: 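Seek colon cancer survival genes behaving like KSR1, using a six-gene signature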 (primary screen). System: human HCT116 colon cancer cells. Knock-down reagent: siRNA pool against human genes, 50 nM. Read-out: 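Log2 levels of six mRNAs (branched-DNA multiplex), adjusted by two reference genes and the non-targeting median, then scored against the average KSR1 knockdown pattern as Pearson r and euclidean distance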. Reading the numbers: mean correlation with KSR1 profile: higher = expression change more like KSR1 knockdown; mean distance from KSR1 profile: higher = expression change less like KSR1 knockdown.
This is a random part of about 14,000 reagents. 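Higher correlation or smaller distance means closer resemblance to KSR1 loss; control wells, including KSR1 knockdowns, recur on many plates.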 Further read-outs or replicates are left out here. Reagent sequences are not shown. The record does not give: the time to read-out.

SNX3 [SID363994858] | mean correlation with KSR1 profile = 0.246; mean distance from KSR1 profile = 2.1
THNSL2 [SID364000932] | mean correlation with KSR1 profile = -0.107; mean distance from KSR1 profile = 3.83
RCHY1 [SID363999494] | mean correlation with KSR1 profile = -0.75; mean distance from KSR1 profile = 3.27
MAGEA2 [SID363996272] | mean correlation with KSR1 profile = -0.43; mean distance from KSR1 profile = 4.72
NUMA1 [SID363997011] | mean correlation with KSR1 profile = -0.856; mean distance from KSR1 profile = 2.06
TMPRSS13 [SID364003765] | mean correlation with KSR1 profile = 0.834; mean distance from KSR1 profile = 1.16
CREB5 [SID363995852] | mean correlation with KSR1 profile = -0.204; mean distance from KSR1 profile = 2.54
TF [SID363992360] | mean correlation with KSR1 profile = 0.351; mean distance from KSR1 profile = 2.1
NPEPL1 [SID364002957] | mean correlation with KSR1 profile = 0.894; mean distance from KSR1 profile = 1.98
TSKU [SID363999544] | mean correlation with KSR1 profile = 0.181; mean distance from KSR1 profile = 2.25
TLE6 [SID364003035] | mean correlation with KSR1 profile = 0.702; mean distance from KSR1 profile = 2.58
ADGRL2 [SID363998215] | mean correlation with KSR1 profile = 0.624; mean distance from KSR1 profile = 1.55

Entries above whose target name starts with N or n (2):
NUMA1 [SID363997011] | mean correlation with KSR1 profile = -0.856; mean distance from KSR1 profile = 2.06
NPEPL1 [SID364002957] | mean correlation with KSR1 profile = 0.894; mean distance from KSR1 profile = 1.98
